Results as given in US11850266B2, “Cardiomyocytes and compositions and methods for producing the same” (President and Fellows of Harvard College, priority 2019, dated 2023).
At least one compound was matched to its structure with a doubt left.

Tested on: BJRiPS-derived cardiomyocytes
Assay: Example 3 preliminary qPCR of maturation genes in BJRiPS-derived cardiomyocytes
Format: cell-based, human
Details: preliminary data, after differentiation
Protocol: The BJRiPS cell line was used to generate preliminary data. BJRiPS cells were differentiated into cardiomyocytes according to previously published protocols (6). After the onset of beating (around day 10), cardiomyocytes were treated with vehicle (DMSO) or different concentrations of rapamycin, Torin1, or Torin2 for different time periods. Beating rate was counted manually. Some cells were harvested after 5-7 days of treatment for flow cytometry analysis. Other cells were harvested after 7 days of treatment for qPCR.

CO[C@H]1C[C@@H]2CC[C@@H](C)[C@@](O)(O2)C(=O)C(=O)N2CCCC[C@H]2C(=O)O[C@H]([C@H](C)C[C@@H]2CC[C@@H](O)[C@H](OC)C2)CC(=O)[C@H](C)/C=C(\C)[C@@H](O)[C@@H](OC)C(=O)[C@H](C)C[C@H](C)/C=C/C=C/C=C/1C [rapamycin]
RNA expression of markers of maturation including TNNI3 and KCNJ2: increased RNA expression
